Measurements published in PubChem BioAssay AID1347426 (Functional Genomics Laboratory (NCATS/FGL), 2020).
Among all 31,000 sequences or so, about 1,400 (4.5%) were called active.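 Rule for the calls: active = median seed-adjusted z-score above 1 or below -1; inactive = the rest.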 The list shows a part of the results.

Assay: Novel Modifiers of Survival Motor Neuron (SMN) Protein: Gene Identification via Genome-wide siRNA Screen;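 note: luminescence tracks full-length SMN protein made from the SMN2 reporter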
Conditions: HEK293T SMN2-luciferase reporter, siRNA knockdown, 72 h; actives lie on both sides
How it was run: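 HEK293T cells stably carrying an SMN2 promoter/splicing cassette–luciferase reporter were reverse-transfected with 1 pmol siRNA per well (druggable-genome library, 3 siRNAs per gene) and grown 72 h at 37 °C. Luminescence, normalized to negative-control siRNA and log10-transformed, was scored as MAD.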

Sequence | median seed-adjusted z-score
GGAUGGAGUACAUAUUAUUTT against UTP11L | inactive: -0.755
GCCUUUCUGUGCUUAUAGATT against ZNF426 | inactive: 0.2
CAGCUAAUCUAUUUCGAAUTT against MAN2A1 | inactive: -0.397
GGUCCUUAUUUGCUCAGUATT against FCRL3 | inactive: -0.642
UGAAGACGUGUGAACCUAATT against ARSD | inactive: -0.447
GCCUACGAAUGUUAUGAAUTT against ZNF12 | inactive: -0.144
CAACCCUUAAUAGAACUAATT against PCDH20 | inactive: 0.0594
CCAUGAUCGAUGUCAUUGATT against GALNT17 | inactive: 0.392
GGAGCUUUGUACAAUGAAATT against POU1F1 | inactive: 0.5
GGCAGAUGCUAAUAACGGATT against 6-Mar | inactive: -0.483
CUAUCCACCUUGGAUCGUATT against BAZ1A | inactive: 0.0896
CAGCUUCCAUUAUGCCCAATT against EIF2B2 | inactive: -0.325
GGCUACAACGUGACCAAGATT against FZD4 | inactive: 0.0695
GCAGUGUCCUAAGCCUGGATT against ACCS | inactive: -0.49
ACUCAAGUGUGCAAGUUCATT against KLK7 | inactive: 0
GGAUUACGACUCUCGAGGATT against CPNE7 | inactive: 0.262
CGAGUACAGCGAUGACGAUTT against CAND2 | inactive: 0.0936
AGAUUGAGACCGUUCGCUUTT against RFXANK | inactive: -0.0665
GUAGUUGACCAAGCUCAAATT against ACTR3B | inactive: -0.301
GCAACAUUGCAGAAGAGCATT against TRIM28 | inactive: -0.718
GCACCAGGGUGAAAGUGUUTT against NHLRC1 | inactive: -0.582
GCACUAUUGUCACCAGAAATT against MARK4 | inactive: -0.675

Copied from the list:
For median seed-adjusted z-score, CAGCUAAUCUAUUUCGAAUTT against MAN2A1 has inactive: -0.397
For median seed-adjusted z-score, GCACCAGGGUGAAAGUGUUTT against NHLRC1 has inactive: -0.582
For median seed-adjusted z-score, GCACUAUUGUCACCAGAAATT against MARK4 has inactive: -0.675
For median seed-adjusted z-score, CCAUGAUCGAUGUCAUUGATT against GALNT17 has inactive: 0.392
For median seed-adjusted z-score, ACUCAAGUGUGCAAGUUCATT against KLK7 has inactive: 0
For median seed-adjusted z-score, GGAUGGAGUACAUAUUAUUTT against UTP11L has inactive: -0.755
For median seed-adjusted z-score, GGAGCUUUGUACAAUGAAATT against POU1F1 has inactive: 0.5

Remaining list, next part

Sequence | median seed-adjusted z-score
CGGUUAUCCCUAAUAUCCATT against PCDHB11 | inactive: -0.257
CCUUCCCUGUCGACACAACTT against GP1BB | inactive: -0.711
GCUCGUGACUGGCUAACAATT against FAHD2B | inactive: 0.154
AACCUGAACUCAUCCUACATT against BEST2 | inactive: 0.415
GAAACUUUGACUUAAAGAATT against FEZF2 | inactive: 0.203
GGACCAAGAUGAUCAGAAATT against SAFB | inactive: -0.954
CUAUGAACGAGUCAAGGAATT against TTC9 | inactive: -0.173
CCCUCGCUUUCUUCACAGUTT against ENTPD3 | inactive: -0.28
GGAGGUCUCCUACAUCAAATT against ZAN | inactive: 0.736
UGAUCACCAUCGGAAAUGATT against ACTA2 | inactive: 0.739
GAUUCUACCCAAGUACAUATT against SLC25A36 | inactive: 0.134
GGAACACUUUCUCUCUAGATT against NOD2 | inactive: 0.129
GGACUACAGUAUACAUUGUTT against PCDH24 | inactive: 0.345
GGAGUACUGGAUGUUCAAATT against SLC29A3 | inactive: -0.0626
GAGUGGUAGUGCUCACGAATT against CPE | inactive: 0.139
GAACAUUGGUGACUAUAUUTT against GRIP2 | inactive: -0.0256
AGGUCAACCAGAUCAUUAATT against ELFN2 | inactive: -0.0888
UCAACUACCCGUUCGAGAATT against NDUFS8 | inactive: -0.467
CAAUCAGCAGAGUUACAUUTT against CPEB3 | inactive: 0.086
AGAACUGCGUGACUAUACATT against ZNF417 | inactive: 0.0205
CUGAUUCAAGAGAAGAUUATT against SMARCAL1 | inactive: -0.145
GGCUUCCAGAAGAUCUACATT against FREQ | inactive: -0.353

Sequence | median seed-adjusted z-score
CCACUAUUCUAGCAUCCGUTT against PKP4 | inactive: 0.368
GUAUCUGCGAGGACGAAAATT against RNF113B | inactive: -0.228
GCUGGUGCUUAGCAACAAATT against RNASE10 | inactive: -0.109
GCCCAGACAUGAGCUACGATT against ABHD11 | inactive: -0.189
CACUCAACCCUGUCGCUUUTT against NR2E1 | inactive: 0.559
GCAUCCGUGGAAAUGGUUATT against ASNS | active: -1.1
GCACUUUUGCUUUCAGAUATT against SNX10 | inactive: 0.391
GGAUCUCAACAUGUUCCUATT against LCAT | inactive: 0.526
ACGCAGUUCUGGAACUACCTT against TNFRSF6B | inactive: 0.0458
CGAAUGUCACCAUAUAUAATT against IL1RL1 | inactive: -0.286
GGUUUGAAGCAGUAUUACATT against DDX20 | inactive: -0.0137
GGCUGGUCCUCCAAACAUATT against CBX2 | inactive: -0.215
GAGCUAAGUUUGUAUCCAATT against EFHB | inactive: 0.675
GGGACAUUGUAUGAGCUCATT against CSGALNACT1 | inactive: -0.235
CGCUUAUCUUCGAUAUCUATT against DHCR24 | inactive: 0.493
GGAGUACACUUGAAAGACUTT against RASGRP3 | inactive: 0.0202
CAGCAAAGGUGCAGCCUUUTT against BGLAP | inactive: -0.488
UCAUAUGUAUGAUCCAAUUTT against SPINK9 | inactive: 0.392
CACUGUUAAUAUUCGCUAUTT against SERAC1 | inactive: -0.0919
GCGACUGUCUCGACAGAUATT against HTT | inactive: -0.234
GGUGGGAUCAGAUUGCUGATT against KLHL3 | inactive: -0.237
GCUCUAGCCUUAUUACGCATT against ZNF256 | inactive: 0.00739

Sequence | median seed-adjusted z-score
GCUGAUUAUUGUAUUCAGATT against HTATSF1 | inactive: -0.411
GCAAGGAGAUUUACUCGAATT against RECQL | inactive: -0.905
GAGGCAUGAAAAUAUCUUATT against ACVR1 | inactive: -0.217
AGACUACGGUUUGAGCUCATT against IL6R | inactive: -0.441
GGAAUGCAAGGAGCAAGUATT against CSTF2 | inactive: 0.586
CGGCAUUACCUCAACCUGATT against HELT | inactive: -0.192
GUCUAUCUCUUGUCUAAAATT against HYAL4 | inactive: -0.236
ACAACAACAAGAUCCGUGATT against CHAD | inactive: 0
CCAGAAUGCCCAUAUCACATT against RS1 | inactive: -0.684
GAUGCAGUUUUGUACUUGATT against PNPLA1 | inactive: 0.00692
CUGGAUUUCUGUUCAGAUUTT against ZNRD1 | inactive: -0.133
GGGUAAUUGGAACAUGUUUTT against RCN3 | active: -2.44
AGAACGGCCUUCUAAGAAATT against IRF2 | inactive: 0.367
GAGUCCAUAUGGUACAAGATT against PNMA1 | inactive: 0.2
GGUUUCUCGACUUCAGAAATT against CHST4 | inactive: 0.349
CGAGCUUUUUCAUUGGAGATT against GPRC6A | inactive: 0
GCAGAACCGUUAUUACAAATT against PITPNA | inactive: -0.225
UCCAUGGACUGAUCUAUAATT against PPP2R5D | inactive: 0.848
CGGUCACUCUCAACAUGGATT against DVL3 | inactive: -0.57
GUAUCUUCCUACGAAGUUATT against PHKA1 | inactive: 0.286
GGGUGUGGAUGGUCUGACUTT against COL9A3 | inactive: 0.16
CCCACCUAAAAGAACGAAATT against ABCE1 | inactive: -0.0527

Sequence | median seed-adjusted z-score
GAACUUGACGAUACUCUAATT against PPP2CA | inactive: 0.731
ACUGUGCUGUGGUUGAUUATT against GPR20 | inactive: 0.442
CAGAGUAUCUUCAACUAAUTT against TNFSF11 | inactive: 0.0212
GUUCCACAAUAGCCACGUGTT against COX6A2 | inactive: 0.714
CGACACUUUCUAUCGACAATT against UBA3 | inactive: 0.605
GGACAUACACUGAGAGUCATT against PDLIM2 | inactive: 0.267
GCUGGUCACCGUGAAGUCATT against RASL12 | inactive: -0.256
ACAAGUUCACGCCCAAGUATT against LMNB2 | inactive: -0.15
GAGCUGCGACUGUAAGAGATT against DHX35 | inactive: -0.066
AAACGGCUUUACUUACAAATT against UCRC | inactive: -0.93
CAAGAUUAGAGAAUACAAATT against ATP5J | inactive: 0.242
GCAGCUCUGAGAACGGCAATT against ARHGEF1 | inactive: -0.0658
GGUUACCAGUUAUAUGACATT against MCCC2 | inactive: -0.0566
GGAUAUCUUAUACUGGUGATT against DMGDH | inactive: 0.0323
GGAAGACUGUGAAGCUACATT against RAB4B | inactive: -0.207
CGAACCUAAUGCUCAACAATT against PREX2 | inactive: -0.0625
GGAUCCACAUAAUGAAGAATT against DNAL1 | inactive: 0.866
GGACGAGAAAAACUGCUCATT against CORIN | inactive: -0.0274
GCUAAGGAACUACUAGAUATT against STK33 | inactive: -0.168
